Reference: article PMC7868338, “Identification of Functional Interactome of Colistin Resistance Protein MCR-1 in Escherichia coli” (Frontiers in Microbiology, 2020)
Results are given in words; binding and its absence hold for the method and conditions named. Binding seen in cells or lysates may run through a third protein. Here binding means that the protein was enriched with, or labelled near, the bait; the list need not be complete.

Chains of the proteins cited; added tags and fusions are not shown.
UniProt P0ACF0: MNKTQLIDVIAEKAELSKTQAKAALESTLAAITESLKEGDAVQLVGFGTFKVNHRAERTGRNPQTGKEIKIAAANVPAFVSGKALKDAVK
UniProt P0A6N2: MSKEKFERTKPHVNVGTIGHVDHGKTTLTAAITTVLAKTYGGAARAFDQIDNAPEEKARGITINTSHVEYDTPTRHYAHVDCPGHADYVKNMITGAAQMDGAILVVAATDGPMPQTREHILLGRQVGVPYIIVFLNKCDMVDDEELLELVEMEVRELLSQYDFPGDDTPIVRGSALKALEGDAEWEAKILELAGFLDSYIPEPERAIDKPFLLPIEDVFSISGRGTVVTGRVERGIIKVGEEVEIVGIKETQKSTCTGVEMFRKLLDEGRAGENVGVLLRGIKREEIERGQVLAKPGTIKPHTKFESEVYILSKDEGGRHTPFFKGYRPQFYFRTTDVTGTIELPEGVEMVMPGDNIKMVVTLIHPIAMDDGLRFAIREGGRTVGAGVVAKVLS
UniProt P0AFZ3: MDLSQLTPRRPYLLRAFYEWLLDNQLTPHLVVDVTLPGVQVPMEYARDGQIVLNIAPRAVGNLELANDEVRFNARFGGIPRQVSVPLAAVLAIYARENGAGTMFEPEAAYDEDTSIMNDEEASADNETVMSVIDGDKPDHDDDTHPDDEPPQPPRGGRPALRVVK
UniProt P0A6F5: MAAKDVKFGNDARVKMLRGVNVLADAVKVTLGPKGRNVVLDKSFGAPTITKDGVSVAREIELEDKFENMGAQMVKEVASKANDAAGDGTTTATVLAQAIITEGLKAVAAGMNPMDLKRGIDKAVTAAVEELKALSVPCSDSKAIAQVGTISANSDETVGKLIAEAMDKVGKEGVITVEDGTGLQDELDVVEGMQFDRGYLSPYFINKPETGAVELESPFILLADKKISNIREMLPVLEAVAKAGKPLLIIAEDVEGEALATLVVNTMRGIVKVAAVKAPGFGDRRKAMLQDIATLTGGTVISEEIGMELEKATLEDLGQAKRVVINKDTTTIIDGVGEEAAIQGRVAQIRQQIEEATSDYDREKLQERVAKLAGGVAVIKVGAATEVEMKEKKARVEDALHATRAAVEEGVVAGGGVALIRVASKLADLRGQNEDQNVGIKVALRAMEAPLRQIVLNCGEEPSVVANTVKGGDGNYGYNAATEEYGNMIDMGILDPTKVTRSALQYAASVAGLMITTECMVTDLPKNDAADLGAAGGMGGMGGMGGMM
UniProt P0A6Y8: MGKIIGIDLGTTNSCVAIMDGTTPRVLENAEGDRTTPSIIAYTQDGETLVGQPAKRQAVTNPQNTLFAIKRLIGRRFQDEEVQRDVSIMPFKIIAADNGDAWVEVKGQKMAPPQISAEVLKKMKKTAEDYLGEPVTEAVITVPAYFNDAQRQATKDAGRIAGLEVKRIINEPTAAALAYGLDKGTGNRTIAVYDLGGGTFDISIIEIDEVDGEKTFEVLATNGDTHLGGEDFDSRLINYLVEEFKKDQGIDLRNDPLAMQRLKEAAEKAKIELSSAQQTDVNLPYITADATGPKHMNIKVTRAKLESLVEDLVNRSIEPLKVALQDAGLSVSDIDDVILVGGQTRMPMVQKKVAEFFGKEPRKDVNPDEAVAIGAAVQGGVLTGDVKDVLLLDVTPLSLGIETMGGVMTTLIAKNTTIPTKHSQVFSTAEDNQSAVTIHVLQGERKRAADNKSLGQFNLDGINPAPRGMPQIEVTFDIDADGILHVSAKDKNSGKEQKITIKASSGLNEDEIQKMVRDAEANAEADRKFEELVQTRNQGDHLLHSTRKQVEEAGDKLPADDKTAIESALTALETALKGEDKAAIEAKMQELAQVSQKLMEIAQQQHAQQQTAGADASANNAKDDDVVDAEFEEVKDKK

What was measured:
Assay in all cases: affinity purification with mass spectrometry; Co-IP with anti-MCR-1 mAb 3G4 and G-Sepharose from E. coli lysates (50 mM Tris-HCl pH 7.5, 300 mM NaCl, 1 mM PMSF, 1% DDM), 4°C; co-precipitates eluted with 0.2 M glycine pH 2.3 and identified by nano LC-MS/MS; anti-IgG and empty vector pull-downs as negative controls
[1] = target: T1, MCR-1 full-length protein (E. coli (strain SHP45))
T1 sequence: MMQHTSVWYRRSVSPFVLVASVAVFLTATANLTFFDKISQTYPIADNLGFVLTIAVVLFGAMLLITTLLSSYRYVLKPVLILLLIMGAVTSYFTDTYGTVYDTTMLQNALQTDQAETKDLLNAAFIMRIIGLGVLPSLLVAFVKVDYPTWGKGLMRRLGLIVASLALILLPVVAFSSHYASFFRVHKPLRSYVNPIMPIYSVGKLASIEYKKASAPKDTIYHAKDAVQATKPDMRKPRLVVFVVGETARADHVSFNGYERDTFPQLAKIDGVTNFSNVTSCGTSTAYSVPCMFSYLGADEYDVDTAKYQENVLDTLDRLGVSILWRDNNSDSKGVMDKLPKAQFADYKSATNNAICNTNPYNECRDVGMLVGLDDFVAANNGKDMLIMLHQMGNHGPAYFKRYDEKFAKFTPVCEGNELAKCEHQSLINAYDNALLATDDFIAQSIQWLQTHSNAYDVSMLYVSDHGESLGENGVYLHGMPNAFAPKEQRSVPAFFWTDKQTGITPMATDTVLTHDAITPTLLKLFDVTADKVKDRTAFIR

[2] = target: T2, MCR-1-200 catalytic domain protein (E. coli (strain SHP45))
T2 sequence: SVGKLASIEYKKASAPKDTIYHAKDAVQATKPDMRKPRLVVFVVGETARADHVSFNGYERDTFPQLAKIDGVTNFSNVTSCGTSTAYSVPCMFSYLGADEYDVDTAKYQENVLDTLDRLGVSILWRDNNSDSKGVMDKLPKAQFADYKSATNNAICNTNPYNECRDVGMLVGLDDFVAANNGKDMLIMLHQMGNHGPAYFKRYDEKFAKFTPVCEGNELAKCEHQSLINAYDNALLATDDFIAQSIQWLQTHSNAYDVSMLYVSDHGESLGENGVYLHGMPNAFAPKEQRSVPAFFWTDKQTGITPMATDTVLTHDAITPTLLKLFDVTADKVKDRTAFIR

[3] = target: T3, MCR-1 (from pUC19-mcr-1) (E. coli)
T3 sequence: T1 sequence

## DNA-binding protein HU-alpha (from UniProt P0ACF0 1-90)
[1]
  binding: binds
[2]
  binding: binds

## Elongation factor Tu (from UniProt P0A6N2 1-394)
[3]
  binding: binds
[1]
  binding: binds

## Stringent starvation protein B (from UniProt P0AFZ3 1-165)
[3]
  binding: binds
[1]
  binding: binds
[2]
  binding: binds

## GroL (from UniProt P0A6F5 1-548)
[3]
  binding: binds

## 50S ribosomal protein L11 (from UniProt P0A7J7 1-142)
[3]
  binding: binds
[1]
  binding: binds

## Chaperone protein DnaK (from UniProt P0A6Y8 1-638)
[3]
  binding: binds
[1]
  binding: binds
[2]
  binding: binds

B1: DNA-binding protein H-NS (protein, UniProt P0ACF8 1-137)
chain: MSEALKILNNIRTLRAQARECTLETLEEMLEKLEVVVNERREEESAAAAEVEERTRKLQQYREMLIADGIDPNELLNSLAAVKSGTKAKRAQRPAKYSYVDENGETKTWTGQGRTPAVIKKAMDEQGKSLDDFLIKQ
[3]
  binding: binds
[1]
  binding: binds
[2]
  binding: binds

B2: HTH-type transcriptional regulator GntR (protein, UniProt P0ACP5 1-331)
chain: MKKKRPVLQDVADRVGVTKMTVSRFLRNPEQVSVALRGKIAAALDELGYIPNRAPDILSNATSRAIGVLLPSLTNQVFAEVLRGIESVTDAHGYQTMLAHYGYKPEMEQERLESMLSWNIDGLILTERTHTPRTLKMIEVAGIPVVELMDSKSPCLDIAVGFDNFEAARQMTTAIIARGHRHIAYLGARLDERTIIKQKGYEQAMLDAGLVPYSVMVEQSSSYSSGIELIRQARREYPQLDGVFCTNDDLAVGAAFECQRLGLKVPDDMAIAGFHGHDIGQVMEPRLASVLTPRERMGSIGAERLLARIRGESVTPKMLDLGFTLSPGGSI
[3]
  binding: binds
[1]
  binding: binds

B3: Succinate dehydrogenase iron-sulfur subunit (enzyme, UniProt P07014 1-238)
chain: MRLEFSIYRYNPDVDDAPRMQDYTLEADEGRDMMLLDALIQLKEKDPSLSFRRSCREGVCGSDGLNMNGKNGLACITPISALNQPGKKIVIRPLPGLPVIRDLVVDMGQFYAQYEKIKPYLLNNGQNPPAREHLQMPEQREKLDGLYECILCACCSTSCPSFWWNPDKFIGPAGLLAAYRFLIDSRDTETDSRLDGLSDAFSVFRCHSIMNCVSVCPKGLNPTRAIGHIKSMLLQRNA
[1]
  binding: binds

B4: Galactitol-specific phosphotransferase enzyme IIB component (enzyme, UniProt P37188 1-94)
chain: MKRKIIVACGGAVATSTMAAEEIKELCQNHNIPVELIQCRVNEIETYMDGVHLICTTAKVDRSFGDIPLVHGMPFISGIGIEALQNKILTILQG
[1]
  binding: binds

B5: Peptidoglycan-associated lipoprotein (protein, UniProt P0A912 22-173)
chain: CSSNKNASNDGSEGMLGAGTGMDANGGNGNMSSEEQARLQMQQLQQNNIVYFDLDKYDIRSDFAQMLDAHANFLRSNPSYKVTVEGHADERGTPEYNISLGERRANAVKMYLQGKGVSADQISIVSYGKEKPAVLGHDEAAYSKNRRAVLVY
[1]
  binding: binds

B6: Isocitrate dehydrogenase (NADP) (enzyme, UniProt P08200 1-416)
chain: MESKVVVPAQGKKITLQNGKLNVPENPIIPYIEGDGIGVDVTPAMLKVVDAAVEKAYKGERKISWMEIYTGEKSTQVYGQDVWLPAETLDLIREYRVAIKGPLTTPVGGGIRSLNVALRQELDLYICLRPVRYYQGTPSPVKHPELTDMVIFRENSEDIYAGIEWKADSADAEKVIKFLREEMGVKKIRFPEHCGIGIKPCSEEGTKRLVRAAIEYAIANDRDSVTLVHKGNIMKFTEGAFKDWGYQLAREEFGGELIDGGPWLKVKNPNTGKEIVIKDVIADAFLQQILLRPAEYDVIACMNLNGDYISDALAAQVGGIGIAPGANIGDECALFEATHGTAPKYAGQDKVNPGSIILSAEMMLRHMGWTEAADLIVKGMEGAINAKTVTYDFERLMDGAKLLKCSEFGDAIIENM
[1]
  binding: binds

B7: DNA-binding protein HU-beta (protein, UniProt P0ACF4 1-90)
chain: MNKSQLIDKIAAGADISKAAAGRALDAIIASVTESLKEGDDVALVGFGTFAVKERAARTGRNPQTGKEITIAAAKVPSFRAGKALKDAVN
[1]
  binding: binds
[2]
  binding: binds

B8: HofN (protein, UniProt P64634 1-179)
chain: MNPPINFLPWRQQRRTAFLRFWLLMFVAPLLLAVGITLILRLTGSAEARIDAVLLQAEQQLARSLQITKPRLLEQQQLREQRSQRQRQRQFTRDWQSALEALAALLPEHAWLTTISWQQGTLEIKGLTTSITALNALETSLRQDASFHLNQRGATQQDAQGRWQFEYQLTRKVSDEHVL
[2]
  binding: binds

B9: Major outer membrane lipoprotein Lpp (protein, UniProt P69776 21-78)
chain: CSSNAKIDQLSSDVQTLNAKVDQLSNDVNAMRSDVQAAKDDAARANQRLDNMATKYRK
[1]
  binding: binds
